Laboratory results: PubChem BioAssay AID1259291 (Sanger Institute, 2017)

Screen: 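Find kinase and colorectal-cancer-mutated genes whose loss kills HT29 cells or aids anchor drugs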 (primary screen)
Cell system: HT29 human colorectal cancer cells
Reagents: siRNA pool against human genes
Treatment: anchor drugs added a day after transfection: BYL719 at 1 µM, cetuximab at 5 µg/ml or trametinib at 10 nM, or DMSO vehicle alone
Measurement: 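Cell viability as a fraction of the non-targeting pool, mean of replicates, robust z-scores from control wells; synergy scores for BYL719 (1 µM), cetuximab (5 µg/ml), trametinib (10 nM)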
Reading the numbers: robust z-score, knock-down alone and viability, knock-down alone: higher = more viable cells; synergy score with BYL719: higher = stronger synergistic killing with drug
Active means: 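Essential when the robust z-score for knock-down without any drug is below -3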
Calls: active = essential (knock-down alone); inactive = no change alone
In all, the deposit lists 794 reagents; this is a random part of them. 15 of them (1.9%) count as active. 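Calls rest on knock-down alone; drug synergy scores do not affect them; drugs added a day post-transfection, DMSO vehicle as comparison.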 Viability is capped at 1. Further read-outs or replicates are left out here. No sequences are given here. The record does not give: the amount of reagent, the time to read-out.

target gene | robust z-score, knock-down alone | viability, knock-down alone (fraction of control) | synergy score with BYL719 | Outcome
TRIB2 (tribbles pseudokinase 2) | -1.9 | 0.848 | -0.036 | inactive
MAP2K3 (mitogen-activated protein kinase kinase 3) | 0.552 | 1 | 0.147 | inactive
NRAS (NRAS proto-oncogene, GTPase) | 0.552 | 1 | 0.0974 | inactive
PFKP (phosphofructokinase, platelet) | 0.552 | 1 | 0.116 | inactive
TK2 (thymidine kinase 2) | 0.552 | 1 | 0.0198 | inactive
OXSR1 (oxidative stress responsive kinase 1) | 0.552 | 1 | 0.0482 | inactive
CDKL5 (cyclin dependent kinase like 5) | 0.552 | 1 | 0.0538 | inactive
MAP3K13 (mitogen-activated protein kinase kinase kinase 13) | -0.598 | 0.929 | 0.115 | inactive
KIT (KIT proto-oncogene, receptor tyrosine kinase) | 0.552 | 1 | -0.0166 | inactive
MAP4K2 (mitogen-activated protein kinase kinase kinase kinase 2) | 0.552 | 1 | 0.0454 | inactive
SGK1 (serum/glucocorticoid regulated kinase 1) | 0.552 | 1 | -0.0719 | inactive
IPPK (inositol-pentakisphosphate 2-kinase) | -1.46 | 0.875 | 0.0432 | inactive
GUCY2F (guanylate cyclase 2F, retinal) | 0.552 | 1 | -0.0749 | inactive
MAPK3 (mitogen-activated protein kinase 3) | 0.552 | 1 | 0.0466 | inactive
FXN (frataxin) | 0.552 | 1 | -0.111 | inactive
GUCY2C (guanylate cyclase 2C) | 0.552 | 1 | -0.135 | inactive

Part of the list above, showing only “viability, knock-down alone (fraction of control)”.
PFKP (phosphofructokinase, platelet)	1
TK2 (thymidine kinase 2)	1
OXSR1 (oxidative stress responsive kinase 1)	1
CDKL5 (cyclin dependent kinase like 5)	1
MAP3K13 (mitogen-activated protein kinase kinase kinase 13)	0.929
KIT (KIT proto-oncogene, receptor tyrosine kinase)	1
MAP4K2 (mitogen-activated protein kinase kinase kinase kinase 2)	1

Additional records follow:
target gene | robust z-score, knock-down alone | viability, knock-down alone (fraction of control) | synergy score with BYL719 | Outcome
MAK (male germ cell associated kinase) | 0.552 | 1 | 0.0351 | inactive
DGUOK (deoxyguanosine kinase) | 0.552 | 1 | 0.0311 | inactive
PDK2 (pyruvate dehydrogenase kinase 2) | 0.552 | 1 | 0.0445 | inactive
GAK (cyclin G associated kinase) | 0.552 | 1 | -0.0835 | inactive
MINK1 (misshapen like kinase 1) | 0.552 | 1 | 0.0941 | inactive
AKT3 (AKT serine/threonine kinase 3) | 0.552 | 1 | 0.0788 | inactive
PRKG1 (protein kinase cGMP-dependent 1) | 0.364 | 0.988 | 0.0866 | inactive
OBSCN | 0.552 | 1 | -0.0921 | inactive
PAK1 (p21 (RAC1) activated kinase 1) | -0.0921 | 0.96 | -0.0831 | inactive
PRKCD (protein kinase C delta) | 0.552 | 1 | -0.0484 | inactive
BUB1 (BUB1 mitotic checkpoint serine/threonine kinase) | -0.264 | 0.949 | 0.0748 | inactive
EFNA4 (ephrin A4) | 0.387 | 0.99 | -0.166 | inactive
MAP3K15 (mitogen-activated protein kinase kinase kinase 15) | 0.552 | 1 | -0.0108 | inactive
PIP4K2C (phosphatidylinositol-5-phosphate 4-kinase type 2 gamma) | 0.141 | 0.974 | 0.0578 | inactive
MAP3K12 (mitogen-activated protein kinase kinase kinase 12) | 0.478 | 0.995 | 0.117 | inactive
PRKY (protein kinase Y-linked (pseudogene)) | 0.255 | 0.982 | 0.147 | inactive
KALRN (kalirin RhoGEF kinase) | -3.02 | 0.779 | -0.0833 | active
PINK1 (PTEN induced kinase 1) | -0.647 | 0.926 | -0.0125 | inactive
PAK5 (p21 (RAC1) activated kinase 5) | -0.124 | 0.958 | -0.158 | inactive
RIPK4 (receptor interacting serine/threonine kinase 4) | 0.552 | 1 | -0.152 | inactive
NME4 (NME/NM23 nucleoside diphosphate kinase 4) | -0.701 | 0.922 | 0.0797 | inactive
DGKG (diacylglycerol kinase gamma) | 0.314 | 0.985 | -0.0769 | inactive
PRKAG2 (protein kinase AMP-activated non-catalytic subunit gamma 2) | 0.552 | 1 | -0.0333 | inactive
CAMK1 (calcium/calmodulin dependent protein kinase I) | 0.552 | 1 | 0.0862 | inactive
TTBK2 (tau tubulin kinase 2) | 0.552 | 1 | 0.0969 | inactive
CKS1B (CDC28 protein kinase regulatory subunit 1B) | 0.552 | 1 | 0.0307 | inactive
PIK3C2A | -2.13 | 0.834 | 0.0234 | inactive
ZC3H11A (zinc finger CCCH-type containing 11A) | 0.323 | 0.986 | 0.00602 | inactive
RTN4 (reticulon 4) | 0.552 | 1 | 0.0829 | inactive
PANK3 (pantothenate kinase 3) | 0.552 | 1 | -0.155 | inactive
CDKN2D (cyclin dependent kinase inhibitor 2D) | 0.552 | 1 | 0.0591 | inactive
EPHA10 (EPH receptor A10) | -0.562 | 0.931 | 0.0472 | inactive
DGKI (diacylglycerol kinase iota) | 0.552 | 1 | 0.138 | inactive
AK2 (adenylate kinase 2) | 0.552 | 1 | -0.0389 | inactive
